Reference: PubChem BioAssay AID652243 (Drosophila RNAi Screening Center, 2013)

Screen: 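Fly genes required for human androgen receptor driven transcription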 (primary screen)
System: Drosophila S2R+ cells
Reagents: long dsRNA against Drosophila genes
Timing: 72 h (48 h, then 24 h hormone)
Conditions: synthetic androgen R1881 at 10 nM for 24 h
Detection: 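Firefly light from an androgen-responsive reporter and Renilla control light per well, raw and unnormalised, for each of two replicates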
Reading the numbers: firefly reporter light: higher = more light from androgen-responsive reporter; Renilla control light: higher = more constitutive control signal (cell number, transfection)
Rule for the call: 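Across duplicate plates, a knock-down whose log firefly/Renilla ratio shifted a set fold down or up from the GFP/LacZ control mean was a hit; the downward cut appears as both 1.5 and 3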
Calls: active = hit: reporter lowered or raised; inactive = no hit
In all, the deposit lists about 24,000 reagents; below is an unselected part of those that have a named target and a result. Of all reagents, 246 (1%) got an active call. 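Plates not normalised; calls are printed but the firefly/Renilla ratio behind them is not deposited; fold cut for lowering reported inconsistently.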 The raw values are shown without normalisation. Names joined by + are all predicted targets of the reagent. No sequences are given here. The record does not give: the amount of reagent.

{"Target gene": "Gk1 (GeneID 43913)", "DRSC id": "DRSC08533", "firefly reporter light, replicate 1": 9.30e5, "firefly reporter light, replicate 2": 6.01e5, "Renilla control light, replicate 1": 1.07e6, "Renilla control light, replicate 2": 8.39e5, "activity call": "inactive"}
{"Target gene": "Gk1 (GeneID 43913)", "DRSC id": "DRSC08534", "firefly reporter light, replicate 1": 59820, "firefly reporter light, replicate 2": 99889, "Renilla control light, replicate 1": 6.26e5, "Renilla control light, replicate 2": 1.12e6, "activity call": "inactive"}
{"Target gene": "RpS5a (GeneID 32700)", "DRSC id": "DRSC20282", "firefly reporter light, replicate 1": 1.05e5, "firefly reporter light, replicate 2": 90545, "Renilla control light, replicate 1": 7.03e5, "Renilla control light, replicate 2": 8.17e5, "activity call": "inactive"}
{"Target gene": "glec (GeneID 42571)", "DRSC id": "DRSC16958", "firefly reporter light, replicate 1": 2.37e5, "firefly reporter light, replicate 2": 1.79e5, "Renilla control light, replicate 1": 2.95e6, "Renilla control light, replicate 2": 3.58e6, "activity call": "inactive"}
{"Target gene": "glec (GeneID 42571)", "DRSC id": "DRSC25314", "firefly reporter light, replicate 1": 5.16e5, "firefly reporter light, replicate 2": 5.03e5, "Renilla control light, replicate 1": 5.99e5, "Renilla control light, replicate 2": 5.66e5, "activity call": "inactive"}
{"Target gene": "CG8613 (GeneID 36593)", "DRSC id": "DRSC07222", "firefly reporter light, replicate 1": 9.11e5, "firefly reporter light, replicate 2": 8.26e5, "Renilla control light, replicate 1": 2.30e6, "Renilla control light, replicate 2": 1.73e6, "activity call": "inactive"}
{"Target gene": "CG8613 (GeneID 36593)", "DRSC id": "DRSC28364", "firefly reporter light, replicate 1": 5.20e5, "firefly reporter light, replicate 2": 8.85e5, "Renilla control light, replicate 1": 8.77e5, "Renilla control light, replicate 2": 1.45e6, "activity call": "inactive"}
{"Target gene": "CG13751 (GeneID 35879)", "DRSC id": "DRSC06422", "firefly reporter light, replicate 1": 3.74e5, "firefly reporter light, replicate 2": 2.99e5, "Renilla control light, replicate 1": 2.38e6, "Renilla control light, replicate 2": 1.74e6, "activity call": "inactive"}
{"Target gene": "CG30283 (GeneID 37454)", "DRSC id": "DRSC04071", "firefly reporter light, replicate 1": 2.33e5, "firefly reporter light, replicate 2": 2.74e5, "Renilla control light, replicate 1": 1.90e6, "Renilla control light, replicate 2": 1.63e6, "activity call": "inactive"}
{"Target gene": "CG30283 (GeneID 37454)", "DRSC id": "DRSC24411", "firefly reporter light, replicate 1": 6147, "firefly reporter light, replicate 2": 6979, "Renilla control light, replicate 1": 177, "activity call": "inactive"}
{"Target gene": "c(2)M (GeneID 34964)", "DRSC id": "DRSC01922", "firefly reporter light, replicate 1": 1.26e6, "firefly reporter light, replicate 2": 1.15e6, "Renilla control light, replicate 1": 1.97e6, "Renilla control light, replicate 2": 1.86e6, "activity call": "inactive"}
{"Target gene": "PGRP-SC1a (GeneID 35859)", "DRSC id": "DRSC06482", "firefly reporter light, replicate 1": 4.30e5, "firefly reporter light, replicate 2": 2.47e5, "Renilla control light, replicate 1": 2.52e6, "Renilla control light, replicate 2": 1.42e6, "activity call": "inactive"}
{"Target gene": "tyf (GeneID 31363)", "DRSC id": "DRSC18382", "firefly reporter light, replicate 1": 1.87e5, "firefly reporter light, replicate 2": 1.17e5, "Renilla control light, replicate 1": 3.01e6, "Renilla control light, replicate 2": 2.08e6, "activity call": "inactive"}
{"Target gene": "tyf (GeneID 31363)", "DRSC id": "DRSC26245", "firefly reporter light, replicate 1": 1.23e5, "firefly reporter light, replicate 2": 1.29e5, "Renilla control light, replicate 1": 5.37e5, "Renilla control light, replicate 2": 5.01e5, "activity call": "inactive"}
{"Target gene": "arx (GeneID 40061)", "DRSC id": "DRSC10386", "firefly reporter light, replicate 1": 28221, "firefly reporter light, replicate 2": 23575, "Renilla control light, replicate 1": 4.77e5, "Renilla control light, replicate 2": 3.22e5, "activity call": "inactive"}
{"Target gene": "CG13438 (GeneID 37348)", "DRSC id": "DRSC06398", "firefly reporter light, replicate 1": 38198, "firefly reporter light, replicate 2": 36675, "Renilla control light, replicate 1": 6.95e5, "Renilla control light, replicate 2": 8.66e5, "activity call": "inactive"}
{"Target gene": "Diap2 (GeneID 36748)", "DRSC id": "DRSC07444", "firefly reporter light, replicate 1": 1.45e6, "firefly reporter light, replicate 2": 1.52e6, "Renilla control light, replicate 1": 2.16e6, "Renilla control light, replicate 2": 2.21e6, "activity call": "inactive"}
{"Target gene": "Diap2 (GeneID 36748)", "DRSC id": "DRSC26613", "firefly reporter light, replicate 1": 2.09e5, "firefly reporter light, replicate 2": 3.04e5, "Renilla control light, replicate 1": 4.82e5, "Renilla control light, replicate 2": 4.57e5, "activity call": "inactive"}
{"Target gene": "Rad1 + Sws1", "DRSC id": "DRSC00778", "firefly reporter light, replicate 1": 1.12e5, "firefly reporter light, replicate 2": 1.24e5, "Renilla control light, replicate 1": 7.96e5, "Renilla control light, replicate 2": 7.16e5, "activity call": "inactive"}
{"Target gene": "CG34045 (GeneID 3885656)", "DRSC id": "DRSC38606", "firefly reporter light, replicate 1": 7.49e5, "firefly reporter light, replicate 2": 6.50e5, "Renilla control light, replicate 1": 2.07e6, "Renilla control light, replicate 2": 2.06e6, "activity call": "inactive"}
{"Target gene": "Rbp (GeneID 41880)", "DRSC id": "DRSC15724", "firefly reporter light, replicate 1": 4.07e5, "firefly reporter light, replicate 2": 4.57e5, "Renilla control light, replicate 1": 1.42e5, "Renilla control light, replicate 2": 1.50e5, "activity call": "inactive"}

3 neighbouring records already listed, for reference:
{"Target gene": "glec (GeneID 42571)", "DRSC id": "DRSC16958", "firefly reporter light, replicate 1": 2.37e5, "firefly reporter light, replicate 2": 1.79e5, "Renilla control light, replicate 1": 2.95e6, "Renilla control light, replicate 2": 3.58e6, "activity call": "inactive"}
{"Target gene": "glec (GeneID 42571)", "DRSC id": "DRSC25314", "firefly reporter light, replicate 1": 5.16e5, "firefly reporter light, replicate 2": 5.03e5, "Renilla control light, replicate 1": 5.99e5, "Renilla control light, replicate 2": 5.66e5, "activity call": "inactive"}
{"Target gene": "CG8613 (GeneID 36593)", "DRSC id": "DRSC07222", "firefly reporter light, replicate 1": 9.11e5, "firefly reporter light, replicate 2": 8.26e5, "Renilla control light, replicate 1": 2.30e6, "Renilla control light, replicate 2": 1.73e6, "activity call": "inactive"}
